Test results from the supplement of paper PMC11732987, “Enantioselective OTUD7B fragment discovery through chemoproteomics screening and high-throughput optimisation” (Communications Chemistry, 2025).
The other results are listed elsewhere or left out. The data scatter; read single values as rough.

Amino acid sequences for entries named in this document (tags omitted). A change or cut given only in a name is not applied to a line headed by its entry. Residues count along the entry.
UniProt Q9H3C7, whole entry, looked up: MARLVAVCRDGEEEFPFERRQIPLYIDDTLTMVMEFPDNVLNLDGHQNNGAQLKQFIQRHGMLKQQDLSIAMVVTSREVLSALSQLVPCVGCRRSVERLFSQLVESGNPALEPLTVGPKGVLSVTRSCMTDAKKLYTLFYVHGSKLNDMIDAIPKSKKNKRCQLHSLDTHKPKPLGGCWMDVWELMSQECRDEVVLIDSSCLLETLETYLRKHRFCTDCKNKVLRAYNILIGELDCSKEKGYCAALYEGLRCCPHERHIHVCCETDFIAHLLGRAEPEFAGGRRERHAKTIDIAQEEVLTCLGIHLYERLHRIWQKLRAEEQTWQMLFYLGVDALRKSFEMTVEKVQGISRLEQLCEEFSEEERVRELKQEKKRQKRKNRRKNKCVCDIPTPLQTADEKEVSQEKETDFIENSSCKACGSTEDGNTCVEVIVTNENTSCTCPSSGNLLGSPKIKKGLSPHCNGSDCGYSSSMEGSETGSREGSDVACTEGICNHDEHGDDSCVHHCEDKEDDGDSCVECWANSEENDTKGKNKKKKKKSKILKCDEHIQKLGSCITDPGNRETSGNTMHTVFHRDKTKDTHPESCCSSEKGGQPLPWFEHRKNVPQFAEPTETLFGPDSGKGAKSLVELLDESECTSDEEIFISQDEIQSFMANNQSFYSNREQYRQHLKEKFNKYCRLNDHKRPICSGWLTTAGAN
UniProt Q9NXN4: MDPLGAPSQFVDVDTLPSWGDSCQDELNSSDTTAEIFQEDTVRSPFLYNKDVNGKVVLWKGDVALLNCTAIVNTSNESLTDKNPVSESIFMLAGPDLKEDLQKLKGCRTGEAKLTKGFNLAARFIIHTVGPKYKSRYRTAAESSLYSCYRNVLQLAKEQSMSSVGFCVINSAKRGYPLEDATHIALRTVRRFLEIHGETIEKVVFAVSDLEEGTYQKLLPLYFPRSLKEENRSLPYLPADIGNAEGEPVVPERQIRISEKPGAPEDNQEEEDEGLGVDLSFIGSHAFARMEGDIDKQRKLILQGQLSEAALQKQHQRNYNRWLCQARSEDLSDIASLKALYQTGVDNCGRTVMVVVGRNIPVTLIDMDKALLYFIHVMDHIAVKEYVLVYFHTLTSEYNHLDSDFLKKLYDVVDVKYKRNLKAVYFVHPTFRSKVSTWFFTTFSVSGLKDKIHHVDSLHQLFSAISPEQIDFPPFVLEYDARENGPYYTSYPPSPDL
UniProt P48637: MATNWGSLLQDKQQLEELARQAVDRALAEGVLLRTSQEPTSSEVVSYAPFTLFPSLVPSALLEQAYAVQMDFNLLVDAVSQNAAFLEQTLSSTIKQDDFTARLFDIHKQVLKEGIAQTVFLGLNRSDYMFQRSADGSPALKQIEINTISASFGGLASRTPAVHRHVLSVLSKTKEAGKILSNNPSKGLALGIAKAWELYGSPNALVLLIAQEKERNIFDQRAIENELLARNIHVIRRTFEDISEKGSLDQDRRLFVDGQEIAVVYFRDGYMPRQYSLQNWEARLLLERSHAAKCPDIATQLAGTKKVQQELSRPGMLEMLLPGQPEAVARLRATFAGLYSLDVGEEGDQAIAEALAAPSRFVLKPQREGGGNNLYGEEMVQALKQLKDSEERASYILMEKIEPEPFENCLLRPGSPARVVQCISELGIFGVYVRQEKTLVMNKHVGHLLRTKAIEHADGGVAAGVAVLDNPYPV
UniProt P49841: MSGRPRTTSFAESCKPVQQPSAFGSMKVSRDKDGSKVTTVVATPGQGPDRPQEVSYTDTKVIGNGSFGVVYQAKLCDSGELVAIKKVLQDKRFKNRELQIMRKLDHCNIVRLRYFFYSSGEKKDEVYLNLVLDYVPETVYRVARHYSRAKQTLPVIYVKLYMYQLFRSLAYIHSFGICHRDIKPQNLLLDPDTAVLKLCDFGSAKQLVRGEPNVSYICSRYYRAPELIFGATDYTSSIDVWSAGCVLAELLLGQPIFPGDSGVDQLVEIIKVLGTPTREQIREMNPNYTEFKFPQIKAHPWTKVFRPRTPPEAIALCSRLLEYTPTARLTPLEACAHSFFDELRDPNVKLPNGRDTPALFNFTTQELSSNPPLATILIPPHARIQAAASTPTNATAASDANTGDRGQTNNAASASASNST
UniProt Q5T7V8, 109-132: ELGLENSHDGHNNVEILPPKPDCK
UniProt Q86YR5, 515-536: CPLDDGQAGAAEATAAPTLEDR
UniProt P49915: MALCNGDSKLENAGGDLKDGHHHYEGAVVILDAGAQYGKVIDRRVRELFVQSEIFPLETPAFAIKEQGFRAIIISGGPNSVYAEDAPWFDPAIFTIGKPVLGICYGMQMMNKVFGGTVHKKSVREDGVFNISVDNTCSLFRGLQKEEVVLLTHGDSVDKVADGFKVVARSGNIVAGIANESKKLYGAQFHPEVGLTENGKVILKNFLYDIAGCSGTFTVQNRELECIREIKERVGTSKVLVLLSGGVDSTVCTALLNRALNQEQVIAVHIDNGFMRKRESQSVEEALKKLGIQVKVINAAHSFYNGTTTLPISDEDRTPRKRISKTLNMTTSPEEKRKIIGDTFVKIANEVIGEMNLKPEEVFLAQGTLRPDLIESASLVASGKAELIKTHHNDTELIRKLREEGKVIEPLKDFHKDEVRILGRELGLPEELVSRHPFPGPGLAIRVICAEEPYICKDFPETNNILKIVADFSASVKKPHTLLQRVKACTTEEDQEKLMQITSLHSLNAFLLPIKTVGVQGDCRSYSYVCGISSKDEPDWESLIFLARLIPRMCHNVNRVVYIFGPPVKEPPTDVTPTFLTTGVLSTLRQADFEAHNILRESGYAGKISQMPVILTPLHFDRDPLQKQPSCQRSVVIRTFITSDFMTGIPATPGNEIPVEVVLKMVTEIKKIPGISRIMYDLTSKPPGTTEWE
UniProt P62873: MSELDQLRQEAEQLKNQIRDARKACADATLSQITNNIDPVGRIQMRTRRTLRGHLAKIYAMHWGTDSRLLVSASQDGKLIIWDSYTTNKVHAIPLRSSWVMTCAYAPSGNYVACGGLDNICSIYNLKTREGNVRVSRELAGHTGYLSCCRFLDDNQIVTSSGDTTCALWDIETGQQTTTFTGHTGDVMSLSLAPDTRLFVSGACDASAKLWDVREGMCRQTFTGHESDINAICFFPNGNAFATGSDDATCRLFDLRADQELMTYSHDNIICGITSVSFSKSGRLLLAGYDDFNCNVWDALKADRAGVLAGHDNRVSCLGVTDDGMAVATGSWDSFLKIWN
UniProt Q3T8J9: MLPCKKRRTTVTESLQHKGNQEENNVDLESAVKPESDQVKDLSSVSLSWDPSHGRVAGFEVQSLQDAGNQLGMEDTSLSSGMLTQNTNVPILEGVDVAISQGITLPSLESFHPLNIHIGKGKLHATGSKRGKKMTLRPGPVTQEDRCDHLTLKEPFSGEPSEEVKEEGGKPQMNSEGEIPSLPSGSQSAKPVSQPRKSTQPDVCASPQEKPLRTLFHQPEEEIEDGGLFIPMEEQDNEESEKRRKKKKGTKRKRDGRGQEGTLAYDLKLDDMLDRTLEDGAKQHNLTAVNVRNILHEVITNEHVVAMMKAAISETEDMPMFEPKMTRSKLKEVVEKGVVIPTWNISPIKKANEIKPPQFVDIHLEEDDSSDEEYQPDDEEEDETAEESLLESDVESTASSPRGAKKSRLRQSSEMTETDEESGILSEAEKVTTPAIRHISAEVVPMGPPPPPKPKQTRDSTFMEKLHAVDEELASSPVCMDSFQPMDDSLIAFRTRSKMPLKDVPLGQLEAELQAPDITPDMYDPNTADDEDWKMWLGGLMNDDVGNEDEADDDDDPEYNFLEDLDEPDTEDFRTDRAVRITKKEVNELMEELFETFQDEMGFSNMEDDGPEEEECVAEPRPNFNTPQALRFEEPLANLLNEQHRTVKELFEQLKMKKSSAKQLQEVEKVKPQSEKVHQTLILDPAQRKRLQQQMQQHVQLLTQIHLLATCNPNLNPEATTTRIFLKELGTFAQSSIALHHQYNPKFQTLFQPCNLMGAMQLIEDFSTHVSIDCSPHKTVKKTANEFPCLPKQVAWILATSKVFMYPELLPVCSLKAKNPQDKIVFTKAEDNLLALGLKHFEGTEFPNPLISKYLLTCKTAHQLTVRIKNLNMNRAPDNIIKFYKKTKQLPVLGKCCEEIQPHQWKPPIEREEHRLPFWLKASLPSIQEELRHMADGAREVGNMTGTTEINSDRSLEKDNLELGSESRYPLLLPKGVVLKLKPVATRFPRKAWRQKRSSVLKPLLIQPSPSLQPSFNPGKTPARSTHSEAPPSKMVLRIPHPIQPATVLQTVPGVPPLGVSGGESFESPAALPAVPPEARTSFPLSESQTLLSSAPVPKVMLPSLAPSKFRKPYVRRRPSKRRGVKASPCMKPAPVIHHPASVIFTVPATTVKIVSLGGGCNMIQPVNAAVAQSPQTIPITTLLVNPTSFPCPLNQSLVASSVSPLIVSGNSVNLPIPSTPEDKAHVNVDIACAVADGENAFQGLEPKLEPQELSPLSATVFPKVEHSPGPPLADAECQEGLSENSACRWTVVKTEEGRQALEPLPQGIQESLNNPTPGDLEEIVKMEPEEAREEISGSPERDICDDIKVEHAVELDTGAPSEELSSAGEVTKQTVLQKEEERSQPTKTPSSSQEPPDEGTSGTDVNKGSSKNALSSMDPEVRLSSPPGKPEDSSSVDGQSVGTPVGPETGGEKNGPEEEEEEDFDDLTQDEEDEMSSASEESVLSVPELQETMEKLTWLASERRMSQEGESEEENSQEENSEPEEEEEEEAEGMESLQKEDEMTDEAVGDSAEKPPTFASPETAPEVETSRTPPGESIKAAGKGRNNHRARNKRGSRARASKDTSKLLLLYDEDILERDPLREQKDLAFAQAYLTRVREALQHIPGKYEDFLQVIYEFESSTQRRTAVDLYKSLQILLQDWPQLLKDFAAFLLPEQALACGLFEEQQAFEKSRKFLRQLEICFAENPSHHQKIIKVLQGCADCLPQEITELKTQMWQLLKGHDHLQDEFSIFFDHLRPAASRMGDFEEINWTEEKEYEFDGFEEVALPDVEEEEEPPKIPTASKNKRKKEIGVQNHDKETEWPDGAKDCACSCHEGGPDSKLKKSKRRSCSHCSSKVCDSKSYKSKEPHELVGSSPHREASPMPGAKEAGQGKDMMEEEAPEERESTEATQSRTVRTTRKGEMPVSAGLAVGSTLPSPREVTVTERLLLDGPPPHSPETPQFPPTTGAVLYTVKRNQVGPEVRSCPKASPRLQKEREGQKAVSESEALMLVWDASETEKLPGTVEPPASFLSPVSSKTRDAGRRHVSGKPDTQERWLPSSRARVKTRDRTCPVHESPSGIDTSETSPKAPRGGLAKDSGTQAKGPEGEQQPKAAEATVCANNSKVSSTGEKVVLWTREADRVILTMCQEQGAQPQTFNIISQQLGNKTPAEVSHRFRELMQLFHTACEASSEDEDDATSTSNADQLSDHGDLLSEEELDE
UniProt Q96EK6: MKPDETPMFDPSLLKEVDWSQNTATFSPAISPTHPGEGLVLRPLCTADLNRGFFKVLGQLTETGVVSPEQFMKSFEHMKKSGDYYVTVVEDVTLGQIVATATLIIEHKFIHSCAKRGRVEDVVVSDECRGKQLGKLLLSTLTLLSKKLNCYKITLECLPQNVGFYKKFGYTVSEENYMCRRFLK
UniProt Q8TAA5: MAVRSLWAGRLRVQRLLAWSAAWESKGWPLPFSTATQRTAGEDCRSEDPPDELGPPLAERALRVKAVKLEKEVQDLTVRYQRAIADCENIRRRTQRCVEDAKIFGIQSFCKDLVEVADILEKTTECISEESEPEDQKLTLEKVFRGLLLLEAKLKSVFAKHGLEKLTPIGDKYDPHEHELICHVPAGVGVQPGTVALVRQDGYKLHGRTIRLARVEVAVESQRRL
UniProt Q969S9: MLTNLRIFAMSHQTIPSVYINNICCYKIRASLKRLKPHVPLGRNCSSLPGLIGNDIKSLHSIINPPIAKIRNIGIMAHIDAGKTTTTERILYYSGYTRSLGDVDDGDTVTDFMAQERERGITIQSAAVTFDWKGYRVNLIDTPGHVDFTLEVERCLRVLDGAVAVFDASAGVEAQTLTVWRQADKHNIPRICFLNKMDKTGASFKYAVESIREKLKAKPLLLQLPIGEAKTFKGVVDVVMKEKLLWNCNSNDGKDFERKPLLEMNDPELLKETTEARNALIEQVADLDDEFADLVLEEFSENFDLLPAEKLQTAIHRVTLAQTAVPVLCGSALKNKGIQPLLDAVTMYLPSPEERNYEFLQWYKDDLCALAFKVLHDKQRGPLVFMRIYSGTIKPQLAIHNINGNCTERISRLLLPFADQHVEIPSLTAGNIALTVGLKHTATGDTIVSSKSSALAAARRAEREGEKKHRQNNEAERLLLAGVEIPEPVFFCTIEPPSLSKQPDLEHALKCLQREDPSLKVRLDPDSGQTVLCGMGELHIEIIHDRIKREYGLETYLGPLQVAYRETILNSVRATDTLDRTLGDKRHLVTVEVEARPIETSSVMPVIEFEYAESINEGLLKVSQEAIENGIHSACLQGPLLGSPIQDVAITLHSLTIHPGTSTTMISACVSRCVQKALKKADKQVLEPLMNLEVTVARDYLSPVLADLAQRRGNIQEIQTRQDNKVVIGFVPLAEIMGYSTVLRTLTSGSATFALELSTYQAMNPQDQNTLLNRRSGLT

Compound: ClCC(=O)N[C@H]1CCCc2ccccc12
Assay: log2 mean competition ratio of IA-DTB cysteine labelling (DMSO/compound) (log2 ratio); higher = stronger cysteine engagement by compound
Details: 50 µM; treatment time: 4 h; cell line lysate: HEK293T
Experimental: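 IA-DTB competitive cysteine chemoproteomics in HEK293T RIPA lysate. Lysates were treated with compound 29 or 30 at 50 or 200 µM for 4 h, then IA-DTB (500 µM, 1 h), trypsin-digested, NeutrAvidin-enriched and analysed by diaPASEF. Competition ratio = intensity DMSO / intensity compound (n=4 treated, n=64 DMSO); binding: mean log2 CR ≥ 1 and p ≤ 0.05 plus QC filters. Target is the cysteine site.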

Target | log2 mean competition ratio
GGNBP2 C544 (UniProt Q9H3C7) | 0.482
GDAP2 C348 (UniProt Q9NXN4) | -0.146
GSS C409 (UniProt P48637) | -0.274
GSK3B C317 (UniProt P49841) | -0.106
GORAB C131 (UniProt Q5T7V8) | 0.0196
GLCCI1 C207 (UniProt Q86VQ1) | 0.0618
GPSM1 C515 (UniProt Q86YR5) | 0.0699
GMPS C523 (UniProt P49915) | -0.0725
GNB1 C204 (UniProt P62873) | -0.00129
GRN C178 (UniProt P28799) | -0.157
GPD2 C45 (UniProt P43304) | 0.197
GON4L C2092 (UniProt Q3T8J9) | -0.174
GNPNAT1 C179 (UniProt Q96EK6) | 0.238
GOLGA3 C45 (UniProt Q08378) | 0.272
GOLGB1 C1713 (UniProt Q14789) | -0.095
GPS1 C175 | -0.322
GLDC C250 (UniProt P23378) | -0.242
GRPEL2 C87 (UniProt Q8TAA5) | 0.17
GFM2 C248 (UniProt Q969S9) | -0.298
GMPS C137 (UniProt P49915) | -0.287

Same assay, conditions: 200 µM; treatment time: 4 h; cell line lysate: HEK293T

Target | log2 mean competition ratio
GGNBP2 C544 (UniProt Q9H3C7) | 0.177
GDAP2 C348 (UniProt Q9NXN4) | 0.0522
GSS C409 (UniProt P48637) | 0.0864
GSK3B C317 (UniProt P49841) | 0.101
GORAB C131 (UniProt Q5T7V8) | -0.0238
GLCCI1 C207 (UniProt Q86VQ1) | 0.236
GPSM1 C515 (UniProt Q86YR5) | -0.1
GMPS C523 (UniProt P49915) | 0.273
GNB1 C204 (UniProt P62873) | 0.109
GRN C178 (UniProt P28799) | -0.0982
GPD2 C45 (UniProt P43304) | -0.288
GON4L C2092 (UniProt Q3T8J9) | -0.355
GNPNAT1 C179 (UniProt Q96EK6) | -0.125
GOLGA3 C45 (UniProt Q08378) | 0.0845
GOLGB1 C1713 (UniProt Q14789) | -0.39
GPS1 C175 | 0.327
GPRIN3 C172 | 0.355
GLDC C250 (UniProt P23378) | 0.0701
GRPEL2 C87 (UniProt Q8TAA5) | 0.171
GFM2 C248 (UniProt Q969S9) | 0.103
GMPS C137 (UniProt P49915) | 0.491
